Experiment [1] has as its target T1, A20 fused to the GAL4 DNA-binding domain (human) (UniProt P21580).
T1 sequence: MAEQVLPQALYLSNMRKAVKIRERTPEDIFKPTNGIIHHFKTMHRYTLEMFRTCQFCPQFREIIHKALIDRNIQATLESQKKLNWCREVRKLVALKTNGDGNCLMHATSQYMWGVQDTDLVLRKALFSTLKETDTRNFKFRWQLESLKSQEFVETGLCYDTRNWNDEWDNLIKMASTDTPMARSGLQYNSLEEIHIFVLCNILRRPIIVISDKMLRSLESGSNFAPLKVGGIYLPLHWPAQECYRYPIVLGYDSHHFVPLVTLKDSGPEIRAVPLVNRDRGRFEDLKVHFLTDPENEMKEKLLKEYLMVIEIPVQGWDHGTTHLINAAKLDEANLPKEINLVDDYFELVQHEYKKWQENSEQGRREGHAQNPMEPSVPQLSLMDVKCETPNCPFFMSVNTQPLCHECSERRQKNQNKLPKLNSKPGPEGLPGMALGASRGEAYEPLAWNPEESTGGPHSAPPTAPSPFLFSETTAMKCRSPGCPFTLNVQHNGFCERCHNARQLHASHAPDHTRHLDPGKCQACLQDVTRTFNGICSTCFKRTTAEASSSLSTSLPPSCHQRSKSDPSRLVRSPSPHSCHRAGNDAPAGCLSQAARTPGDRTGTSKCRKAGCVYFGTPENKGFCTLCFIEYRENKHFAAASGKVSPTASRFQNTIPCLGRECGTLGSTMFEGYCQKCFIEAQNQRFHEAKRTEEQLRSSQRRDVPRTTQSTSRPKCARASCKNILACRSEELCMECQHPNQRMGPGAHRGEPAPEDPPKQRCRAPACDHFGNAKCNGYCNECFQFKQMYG
Put plainly: two-hybrid; mammalian two-hybrid (Matchmaker, Clontech) in RKO cells; GAL4 DNA-binding domain and VP16 activation domain fusions; secreted alkaline phosphatase reporter.

The target in experiment [2] is T2, endogenous A20 (human (endogenous in RKO)) (UniProt P21580).
T2 sequence: T1 sequence
Briefly: co-IP; endogenous proteins; wild-type RKO cells stimulated with wnt3a for 4 hours; A20 immunoprecipitated with antibody B5 or 4H16, blot for RIPK4; lysis in 1% Triton X-100, 150mM NaCl, 10% Glycerol.

Experiment [3] concerns the target T2, endogenous A20 (human (endogenous in RKO)). Briefly: condition: only cells stimulated with TNF (10ng/mL, 4 hours) and not with wnt3a; co-IP; endogenous proteins; wild-type RKO cells stimulated with TNF for 4 hours; A20 immunoprecipitated with antibody B5 or 4H16, blot for RIPK4; lysis in 1% Triton X-100, 150mM NaCl, 10% Glycerol.

Results are given in words; binding and its absence hold for the method and conditions named. For part of these data: Binding seen in cells or lysates may run through a third protein. Some binding calls cover weakened binding; strength is not graded here. For part of these data: Where a sequence is shown, tags or fusion partners need not be part of it.

B1: RIPK4 fused to the VP16-transactivation domain (protein, UniProt P57078 1-832)
chain: MEGDGGTPWALALLRTFDAGEFTGWEKVGSGGFGQVYKVRHVHWKTWLAIKCSPSLHVDDRERMELLEEAKKMEMAKFRYILPVYGICREPVGLVMEYMETGSLEKLLASEPLPWDLRFRIIHETAVGMNFLHCMAPPLLHLDLKPANILLDAHYHVKISDFGLAKCNGLSHSHDLSMDGLFGTIAYLPPERIREKSRLFDTKHDVYSFAIVIWGVLTQKKPFADEKNILHIMVKVVKGHRPELPPVCRARPRACSHLIRLMQRCWQGDPRVRPTFQGNGLNGELIRQVLAALLPVTGRWRSPGEGFRLESEVIIRVTCPLSSPQEITSETEDLCEKPDDEVKETAHDLDVKSPPEPRSEVVPARLKRASAPTFDNDYSLSELLSQLDSGVSQAVEGPEELSRSSSESKLPSSGSGKRLSGVSSVDSAFSSRGSLSLSFEREPSTSDLGTTDVQKKKLVDAIVSGDTSKLMKILQPQDVDLALDSGASLLHLAVEAGQEECAKWLLLNNANPNLSNRRGSTPLHMAVERRVRGVVELLLARKISVNAKDEDQWTALHFAAQNGDESSTRLLLEKNASVNEVDFEGRTPMHVACQHGQENIVRILLRRGVDVSLQGKDAWLPLHYAAWQGHLPIVKLLAKQPGVSVNAQTLDGRTPLHLAAQRGHYRVARILIDLCSDVNVCSLLAQTPLHVAAETGHTSTARLLLHRGAGKEAMTSDGYTALHLAARNGHLATVKLLVEEKADVLARGPLNQTALHLAAAHGHSEVVEELVSADVIDLFDEQGLSALHLAAQGRHAQTVETLLRHGAHINLQSLKFQGGHGPAATLLRRSKT
Regarding B1, the binding entry in experiment [1] is on record as “binds”.

B2: endogenous RIPK4 (protein, UniProt P57078 1-832)
chain: B1 chain
On to B2, for which the binding result in experiment [2] is on record as “binds”; in experiment [3], “no binding”.

Values taken from paper PMC5931457.
